Assay results taken from PubChem BioAssay AID1487 (National Center for Advancing Translational Sciences (NCATS), 2009).
The other results are listed elsewhere or left out. Further columns of the screen follow, without active or inactive calls. Compounds called inactive in the main read-out are mostly missing here. Words in brackets tell the shape of the fitted curve; partial curves, single points and poor fits give uncertain potencies.

Assay: qHTS Assay for Modulators of Lamin A Splicing
Details: HeLa LMNA splicing GFP/RFP minigene ratio, 48 h; measured here: RFP viability control channel
Description: NCGC Assay Overview: Hutchinson-Gilford Progeria Syndrome (HGPS) is a pediatric premature aging disease caused by a spontaneous mutation in the lamin A/C (LMNA) gene. The mutation activates a cryptic splice site in the LMNA pre-mRNA which results in production of a pre-lamin A protein that cannot be processed properly. The mutant protein accumulates in the nucleus and negatively affects numerous cellular functions. Correction of the splicing defect in HGPS patient cells using a targeted oligonucleotide (exo11) leads to reversal of the cellular disease phenotypes. […] References: Bowen, W. P.; Wylie, P. G. Application of Laser-Scanning Fluorescence Microplate Cytometry in High Content Screening. […]
NCGC Assay Protocol Summary: Reagents/Controls: Stable clones expressing DsRed2 and lamin A-EGFP were generated by Cell and Molecular Technologies in S3 HeLa cells. […] The cells were counted and resuspended in Opti-MEM I (no phenol red; Gibco), 2% FBS, 1% penicillin/ streptomycin (Gibco) at concentration of 120 cells/uL concentration. […] Following incubation the plates were read on the Acumen Explorer using the 488 nm laser. […] The ratio of the total object intensity in PMT1 (500-530 nm emission; GFP) over PMT3 (575-640 nm emission; RFP) was calculated for analysis. […]

Structure (SMILES) | AC50
O=C(Nc1ccc(-c2nc3ccccc3[nH]2)cc1)c1ccccc1NS(=O)(=O)c1ccc(F)cc1 | 6.31 µM [rising, partial curve]
